The values below come from PubChem BioAssay AID2442 (Broad Institute, 2010).

This assay is described as follows: PubChem AID 2442. The settings on record: H4 cells, SNCA 5'UTR luciferase translation, luminescence; at 6 µM (top of the series).

This is one part of the list. Results with a measured potency or affinity are listed apart. Entries without a call are filed as inconclusive in the source.

`CC(=O)O[C@@]12CO[C@@H]1C[C@H](O)[C@@]1(C)C(=O)[C@H](O)C3=C(C)[C@@H](OC(=O)[C@H](O)[C@@H](NC(=O)c4ccccc4)c4ccccc4)C[C@](O)([C@@H](OC(=O)c4ccccc4)[C@H]21)C3(C)C`: the activation was -14%.
